Results are percentages, as filed.
The record does not define 0% and 100%; most values in the screen are far below 50% and negative numbers occur (in some assays of this library far below -100).
Compounds were drawn at random from those tested, without regard to their results.

Protein sequences, listed by entry. Tags and fused reporters are not part of them.
UniProt E9BF75, entry or part of it: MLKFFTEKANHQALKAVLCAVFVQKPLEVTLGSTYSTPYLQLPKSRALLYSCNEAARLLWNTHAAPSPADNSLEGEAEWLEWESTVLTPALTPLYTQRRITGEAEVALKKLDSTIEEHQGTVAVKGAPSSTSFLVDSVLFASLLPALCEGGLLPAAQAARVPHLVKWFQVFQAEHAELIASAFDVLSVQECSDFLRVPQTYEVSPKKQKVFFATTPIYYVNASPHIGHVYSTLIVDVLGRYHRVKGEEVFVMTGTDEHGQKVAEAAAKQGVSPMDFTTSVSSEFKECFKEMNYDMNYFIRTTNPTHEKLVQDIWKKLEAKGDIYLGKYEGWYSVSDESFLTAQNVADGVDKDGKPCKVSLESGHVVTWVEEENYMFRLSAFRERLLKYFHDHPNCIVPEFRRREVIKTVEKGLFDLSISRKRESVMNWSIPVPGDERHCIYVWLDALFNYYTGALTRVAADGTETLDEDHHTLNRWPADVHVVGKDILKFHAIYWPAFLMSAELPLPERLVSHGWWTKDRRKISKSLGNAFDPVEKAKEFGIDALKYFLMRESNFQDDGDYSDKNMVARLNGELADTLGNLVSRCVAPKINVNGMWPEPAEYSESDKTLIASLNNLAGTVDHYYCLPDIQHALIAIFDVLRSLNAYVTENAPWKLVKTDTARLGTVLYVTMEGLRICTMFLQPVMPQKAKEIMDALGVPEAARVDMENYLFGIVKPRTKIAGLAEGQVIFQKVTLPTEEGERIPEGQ

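Methionyl-tRNA synthetase (putative), Leishmania donovani (UniProt E9BF75). Primary screen of methionyl-tRNA synthetase; the read-out is not stated. The test concentration is not given. Values are per cent inhibition. Of about 68,000 compounds tested this way, about 24 (0.035%) reached 50% or more in at least one test.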

compound	inhibition
COCC1CN(CCc2ccc(OC)c(OC)c2)Cc2c1cnn2C (configuration not stated)	7.625%
O=C(CCCN1CCCCC1)N1CCN(C(=O)c2nc[nH]n2)CC1	15.22%
Cc1cc(C)c2c(c1)C(NC(=O)CSc1nnc[nH]1)CCO2 (configuration not stated)	-0.2762%
Cc1cc(NCCC(=O)NC2CCS(=O)(=O)C2)nc(-c2ccncc2)n1 (configuration not stated)	29.53%
Cc1cc(C(=O)N2CC[C@@H]3CO[C@@H](CN4CCCC4)[C@@H]3C2)no1	1.46%
O=C1OCCC1N1CCN(c2ccc(O)cc2)CC1 (configuration not stated)	4.696%
CC(C)n1cc(CN2CCCN(C(=O)C3CCOC3)CC2)cn1 (configuration not stated)	13.89%
O=C(c1ccc2cccnc2n1)N(Cc1ccsc1)CC1CCCO1 (configuration not stated)	17%
CC(NC(=O)N1CCC(c2ccccc2)CC1)c1nncn1C (configuration not stated)	24.57%
O=C(Cc1ccccn1)NCC1OCCc2cn(CC3CC3)nc21 (configuration not stated)	2.837%
CCS(=O)(=O)c1ncc(CN(C)Cc2ccccc2OC)n1CCOC	4.682%
CNC(=O)C1CCN(C(=O)NCc2ccc(C)n2C)CC1	21.51%
COc1ccc(CCNC(=O)c2ccc(=O)n(C)c2)c(Cl)c1	14.29%
Cn1ncnc1CNc1ccccc1C(=O)NC(C)(C)C	21.56%
CN(CCCNC(=O)c1ccccc1OCC(N)=O)CC(F)(F)F	12.41%
CSCCC(C)(O)CNS(=O)(=O)Cc1cccc(C)c1 (configuration not stated)	16.62%
CCOCC(=O)N1CCC2(CC1)COC(COCc1ccccn1)C2 (configuration not stated)	9.966%
CCc1nnc(SCC(=O)Nc2cc(C(C)(C)C)nn2C)[nH]1	8.696%
Cc1ccc(-c2cc(N)c(=O)n(C(C)C(=O)NCC3CCCCC3)n2)s1 (configuration not stated)	5.178%
Cc1oncc1C(=O)N1CCC(O)(CN2CCOCC2)C(C)(C)C1 (configuration not stated)	-2.29%
CC(=O)N1CCN(CC(=O)NCCCN(C)c2ccccc2)CC1	4.337%
COc1cc(OC)cc(C2(O)CCN(Cc3ncc(C)o3)CC2)c1	4.61%
CC(O)CNC(=O)NCCCN1CCN(c2ncccn2)CC1 (configuration not stated)	11.03%
O=C(c1ccc(F)cc1)N1CCN2C[C@H](Oc3cccnc3)C[C@H]2C1	10.1%
CCC(CC)C(=O)c1c[nH]c(C(=O)N2CCN(c3ccccc3)CC2)c1	18.33%
CCOC(=O)[C@]12CCCN(Cc3ccco3)C[C@H]1CN(S(C)(=O)=O)C2	12.64%
CC(C)(N)C(=O)N1CCCC(c2cncc(Oc3cccnc3)n2)C1 (configuration not stated)	20.83%
Cc1cc(N(C)C)nc(N2CCCC2c2cccnc2)n1 (configuration not stated)	16.17%
CC1(C(=O)NCc2ccsc2)CCOCC1	1.714%
CNC(=O)CCc1cc(C)nc(C2CCN(C3CCCCC3)CC2)c1	18.69%
N#Cc1cccc(N2CCCC3(CCC(=O)N(C4CCCC4)C3)C2)n1 (configuration not stated)	23.99%
Cc1cc(SC(C)(C)C)ccc1NC(=O)CNC(N)=O	8.711%
CCOc1ccnc(N2CCN(C(=O)C(C)(C)C#N)CC2)n1	18.9%
Cc1noc(C)c1CN1CCCC1c1c(C)nn(C)c1Cl (configuration not stated)	19.43%
COc1cccc(-c2nc(C)c(C(=O)N[C@@H](CCSC)C(=O)O)s2)c1	15.45%
CC(c1nc(C2CC2)no1)N(C)Cc1ccc(Cl)cc1 (configuration not stated)	10.48%
C=C(C)COc1ccc(C(=O)NCCn2c(C)cc(C)nc2=O)cc1	12.24%
Cc1nccn1-c1ccc(CNC(=O)c2ccc(O)nc2)cn1	7.754%
CCc1cc(N2CCC(N[C@@H]3CS(=O)(=O)C[C@H]3O)CC2)nc(N(C)C)n1	21.09%
Cn1cc(CCNC(=O)NC2CCN(Cc3ccccn3)CC2)cn1	4.217%
O=c1ccc2c(n1CCN1CCCC1)CCN(Cc1ccoc1)CC2	12.5%
Nc1nc(N2CCCC(COc3ccc(F)cc3)C2)c2nc[nH]c2n1 (configuration not stated)	22.97%
CN(c1ccc(CNC(=O)c2c[nH]c(=O)c(Cl)c2)cc1)C1CCCCC1	15.22%
CCOc1cccc(C(=O)N2CCCn3nc(CCC(=O)O)cc3C2)c1	8.696%
CN(C)c1ncc(-c2cc(C(=O)NCCC#N)n(CC3CC3)c2)cn1	-7.726%
CCc1n[nH]c(C2CN(C(=O)c3cc4c(s3)CCCC4)CCO2)n1 (configuration not stated)	1.408%
Cc1ccc(-c2ccnc(N3CCC4(CC3)CNC(=O)C4)n2)c(C)n1	3.436%
c1cncc(C2COC3(CCN(Cc4cccs4)CC3)C2)c1 (configuration not stated)	10.66%
CC(C)(C)n1ncc2c1CCCC2NCc1cccc2c1OCCO2 (configuration not stated)	24.36%
COc1cc(CNCc2c(C)nn(C)c2N(C)C)ccn1	13.73%
COc1ccc(CN2CC[C@@]3(C2)[C@H](O)CN(C)S3(=O)=O)cc1F	1.351%
CCCN(C)c1ccc(C(=O)NCc2ccnc(C)n2)cc1	9.192%
Cc1cccc(CC(=O)N2CCCC(N(C)CCCN(C)C)C2)c1 (configuration not stated)	13.33%
Cn1cc(-c2cnc(N3CCOCC3)nc2)cc1C(=O)NC1CC1	13.93%
CCOc1ccc(C#N)cc1NC(=O)N1CCC(N2CCCC2)C1 (configuration not stated)	15.88%
Fc1ccc(CN2CCO[C@H]3[C@H](Oc4ccccn4)CC[C@@H]32)cc1	8.148%
CNC(=O)NC(=O)CNC(CC(F)(F)F)c1ccc(F)cc1 (configuration not stated)	-1.847%
C=C(C)COc1ccccc1CN1CCC(C(=O)NCC)C1 (configuration not stated)	10.18%
Cc1cccc(C)c1Nc1noc2c1CN(C(=O)c1ccn(C)n1)CC2	8.14%
CSc1ccc(CN(C(=O)c2cc(C)[nH]c(=O)c2)C2CC2)cc1	5.651%
O=S1(=O)c2cccnc2OC(Cc2ccccc2)CN1CC1CC1 (configuration not stated)	1.351%
c1cncc(NCCCNC2CCSC2)c1 (configuration not stated)	6.87%
O=C(C1CCOCC1)N1C[C@H]2CCC[C@@]2(COCc2ccccn2)C1	5.865%
CCOc1ccc(C(=O)NCc2ccnc(N3CCN(C)CC3)c2)cn1	18.21%
O=C(c1ccco1)N1CC[C@@H]2O[C@@H](COCC3CCOCC3)CC[C@@H]21	2.618%
Cn1ncc2c(N3CCCN4CCC[C@H]4C3)nc(C(C)(C)C)nc21	28.22%
O=c1c(Cc2ccccc2)c(O)ccn1Cc1ccco1	5.391%
NCCNS(=O)(=O)Cc1ccc(Br)cc1	12.97%
CCc1nc(CN(C)C2CCCN(c3cccnn3)C2)no1 (configuration not stated)	12.82%

Some entries from above, unchanged:

With CNC(=O)NC(=O)CNC(CC(F)(F)F)c1ccc(F)cc1 (configuration not stated) the screen gave -1.847%.
With O=S1(=O)c2cccnc2OC(Cc2ccccc2)CN1CC1CC1 (configuration not stated) the screen gave 1.351%.
With CCOCC(=O)N1CCC2(CC1)COC(COCc1ccccn1)C2 (configuration not stated) the screen gave 9.966%.
With O=c1c(Cc2ccccc2)c(O)ccn1Cc1ccco1 the screen gave 5.391%.
With Cc1cccc(CC(=O)N2CCCC(N(C)CCCN(C)C)C2)c1 (configuration not stated) the screen gave 13.33%.

Data taken from ChEMBL document CHEMBL3988442, “University of Dundee, Small-Polar-MMV Screening Library” (2021).